# According to the supplement of paper PMC3545927:
# Chains of the proteins cited; added tags and fusions are not shown.
# furin, P09958, UniProt P09958, whole entry: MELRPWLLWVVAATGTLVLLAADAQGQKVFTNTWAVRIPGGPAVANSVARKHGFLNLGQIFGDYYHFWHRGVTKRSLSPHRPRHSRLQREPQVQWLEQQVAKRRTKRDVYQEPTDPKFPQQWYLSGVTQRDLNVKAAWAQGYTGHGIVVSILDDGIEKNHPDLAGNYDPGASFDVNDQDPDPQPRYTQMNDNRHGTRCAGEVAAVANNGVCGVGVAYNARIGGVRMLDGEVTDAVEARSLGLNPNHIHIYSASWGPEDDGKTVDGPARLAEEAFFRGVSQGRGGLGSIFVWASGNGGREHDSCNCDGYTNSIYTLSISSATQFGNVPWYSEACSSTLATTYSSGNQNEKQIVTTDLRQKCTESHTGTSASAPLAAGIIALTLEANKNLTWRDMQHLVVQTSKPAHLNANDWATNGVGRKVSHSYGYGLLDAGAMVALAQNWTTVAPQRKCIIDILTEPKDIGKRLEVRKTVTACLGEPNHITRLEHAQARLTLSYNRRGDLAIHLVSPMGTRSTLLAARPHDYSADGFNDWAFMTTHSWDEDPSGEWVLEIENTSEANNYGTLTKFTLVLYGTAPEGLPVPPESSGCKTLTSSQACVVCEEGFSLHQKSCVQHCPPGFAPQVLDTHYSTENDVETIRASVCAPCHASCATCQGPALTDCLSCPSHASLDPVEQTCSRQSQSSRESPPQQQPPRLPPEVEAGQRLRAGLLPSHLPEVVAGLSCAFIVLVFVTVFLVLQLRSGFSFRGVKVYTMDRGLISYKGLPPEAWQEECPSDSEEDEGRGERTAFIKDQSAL
# Only a part is listed here, and it is no random draw.
# B1: FS-3093 (peptide)
# chain: CARSRRAYLAAGNASASA
# B2: FS-778 (peptide)
# chain: CAGAGRVKRGAGNASASA
# B3: FS-1873 (peptide)
# chain: CARWRRTKGAAGNASASA
# B4: FS-1812 (peptide)
# chain: CARYYRDAAGAGNASASA
# B5: FS-2072 (peptide)
# chain: CARRNRSTSTAGNASASA
# B6: FS-1382 (peptide)
# chain: CAPHTRLRRSAGNASASA
# B7: FS-2495 (peptide)
# chain: CARMKRKIERAGNASASA
# B8: FS-1726 (peptide)
# chain: CARKIRTVGNAGNASASA
# B9: HC2387 (peptide)
# chain: CAEVPCHRFSAGNASASA
# B10: FS-3037 (peptide)
# chain: CARQKRSSEAAGNASASA
# B11: HC116 (peptide)
# chain: CAVVCCTMSYAGNASASA
# B12: HC2461 (peptide)
# chain: CAENEVPCHRAGNASASA
# B13: HC86 (peptide)
# chain: CAVVCFSMSYAGNASASA
# B14: FS-1562 (peptide)
# chain: CARNRRKRKGAGNASASA
# B15: FS-2201 (peptide)
# chain: CAVVKRDVDEAGNASASA
# B16: FS-18 (peptide)
# chain: CADYSRFVRDAGNASASA
# B17: FS-2052 (peptide)
# chain: CARPARSATGAGNASASA
# B18: FS-1192 (peptide)
# chain: CAELSRLRRLAGNASASA
# B19: FS-550 (peptide)
# chain: CALSERQNRSAGNASASA
# B20: FS-2154 (peptide)
# chain: CARKKRLEPTAGNASASA
# B21: HC590 (peptide)
# chain: CAVWIPPLNVAGNASASA
# B22: FS-62 (peptide)
# chain: CAMSSRNFRFAGNASASA
# B23: FS-1030 (peptide)
# chain: CALRKRRKRKAGNASASA
# B24: FS-2410 (peptide)
# chain: CARALRLVDGAGNASASA
# B25: FS-123 (peptide)
# chain: CAERSRVCRCAGNASASA
# B26: FS-2180 (peptide)
# chain: CARRQRRVAGAGNASASA
# B27: HC600 (peptide)
# chain: CAAVHPTLVFAGNASASA
# B28: FS-2024 (peptide)
# chain: CARHRRFRLDAGNASASA
# B29: FS-2893 (peptide)
# chain: CARASRSIRIAGNASASA
# Target: furin, P09958
# Assay: furin cleavage Z-score vs untreated control; higher = more cleavage, active = 3.5 or more, inactive = 1 or less, 8 variable residues between constant flanks
# Summary of the method: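 The cleavage Z-score is the log read count relative to furin-free reactions, lowess-adjusted and scaled by median absolute deviation. Counts came from sequencing DNA released from bead-bound 8-mer peptide–cDNA fusions after digestion with purified furin for 7.5, 15 or 30 min.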
# 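Further: purified furin at 1:10 enzyme:substrate in 50 mM HEPES pH 7.5.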
Sequence,furin cleavage Z-score (7.5 min),furin cleavage Z-score (15 min),furin cleavage Z-score (30 min)
B1,1.52,2.71,3.05
B2,1.42,1.55,1.16
B3,inactive: -0.133,inactive: -1.53,inactive: -0.0248
B4,2.19,3.06,1.79
B5,active: 4.22,active: 6.96,active: 4.29
B6,2.35,2.68,2.05
B7,2.72,2.2,3.48
B8,active: 5.44,active: 7.79,active: 7.77
B9,1.19,1.4,1.45
B10,active: 9.89,active: 9.51,active: 6.34
B11,2.31,2.04,1.7
B12,1.97,1.76,1.47
B13,inactive: -0.132,1.31,inactive: 0.28
B14,1.48,2.38,2.16
B15,1.71,1.34,2.32
B16,1.97,2.91,2.73
B17,1.63,2.59,2.68
B18,1.8,1.93,2.71
B19,2.28,1.08,1.81
B20,1.02,1.99,2.51
B21,1.75,2.11,1.01
B22,1.34,1.29,1.2
B23,active: 10.7,active: 11.4,active: 9.12
B24,inactive: -0.828,inactive: -0.615,inactive: -0.629
B25,inactive: -0.711,inactive: 0.103,2.18
B26,1.21,1.08,1.63
B27,2.24,1.33,1.6
B28,1.24,1.94,2.02
B29,active: 3.6,active: 6.75,active: 7.27

# Another view of some results above:
Sequence	furin cleavage Z-score (7.5 min)	furin cleavage Z-score (15 min)	furin cleavage Z-score (30 min)
B6	2.35	2.68	2.05
B7	2.72	2.2	3.48
